# In PubChem BioAssay AID2685 (National Center for Advancing Translational Sciences (NCATS), 2010):
# The other results are listed elsewhere or left out. Shown are side measurements of this screen, not its main read-out; they come without a call. Compounds called inactive in the main read-out are mostly missing here. Potencies come from curve fits of mixed quality, noted in brackets.
# Assay: qHTS Assay for Lipid Storage Modulators in Drosophila S3 Cells;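 on cell number change: cells counted by Cell Tracker Red CMTPX staining in the red channel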
# Details: BODIPY lipid droplet fluorescence, 18-24 h; for cell number change: measured here: cell count max response, cells fed with added oleic acid
# Summary of the method: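 Drosophila S3 cells got compounds at several concentrations plus oleic acid (400 uM solution). Laser-scanning cytometry with 488 nm excitation read lipid droplets at 500-530 nm and cells at 575-640 nm. Percent activity was relative to 20 uM Triacsin C.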
# [1] = measured here: lipid fluorescence (Fed channel) AC50, cells fed with added oleic acid
# [2] = measured here: cell number channel AC50, cells fed with added oleic acid
Compound,cell number change [%],AC50 [1],AC50 [2]
Cc1ccc(/C=N/Nc2cc(C)nc(N3CCOCC3)n2)cc1,12.3,"0.164 µM [rising, full curve, poor fit]",
CCCCc1ccc(/C(C)=N/NC(=O)C2CCCC2)cc1,-20.3,,
CSc1nc(Sc2ccc(Cl)cc2)c2ccccc2n1,-18.7,"5.17 µM [falling, partial curve]",
Cc1ccc(C2(c3ccccc3)NC(=O)N(CC(=O)NC3CCS(=O)(=O)C3)C2=O)cc1C (configuration not stated),-20.6,,
C=CCOc1cccc(CNc2ccc3[nH]c(=O)[nH]c3c2)c1,78.9,"29.1 µM [rising, single point]","29.1 µM [rising, single point]"
Cc1ccc([N+](=O)[O-])cc1Nc1nc(N2CCOCC2)nc(N2CCOCC2)n1,-17.2,"2.06 µM [rising, partial curve]",
COc1cc(NC(=O)C/C(C)=N/NC(=O)C2CCCCC2)c(OC)cc1Cl,14.3,"0.206 µM [rising, single point]",
CC(NC(=O)c1ccccc1)C(=O)N/N=C/c1cccc([N+](=O)[O-])c1 (configuration not stated),37.6,"6.51 µM [rising, full curve]","2.31 µM [rising, partial curve]"
CCOC(=O)CNC(=O)C1COc2ccccc2O1 (configuration not stated),-14.9,"0.461 µM [falling, full curve, poor fit]","0.411 µM [falling, partial curve, poor fit]"
CC1Cc2cc(/C=C3/SC(=S)NC3=O)ccc2O1 (configuration not stated),12.9,"0.00517 µM [falling, full curve, poor fit]",
CC(=O)c1ccccc1NC(=O)COC(=O)/C=C/c1ccc(C)o1,47.8,,"29.1 µM [rising, single point]"
COc1cccc(C(=O)Nc2nnc(-c3ccc(Cl)cc3)o2)c1,-14.1,"29.1 µM [falling, single point]",
CC(C)(C)NS(=O)(=O)c1ccc(NC(=O)CS(=O)(=O)Cc2ccccc2)cc1,-6.07,"29.1 µM [falling, single point]",
Cc1cccc(N(Cc2ccccc2)C(=O)CCl)c1,-0.24,"6.51 µM [falling, single point]",
FC(F)(F)c1nnc2ccc(N3CCCCCC3)nn12,-29.6,,
COc1ccc(N2CCN(C(=O)c3ccncc3)CC2)cc1,,,"6.51 µM [rising, single point]"
CC1CCN(c2cc(N3CCN(C(=O)c4ccc(F)c(F)c4)CC3)c([N+](=O)[O-])cc2F)CC1,5.18,"6.51 µM [falling, single point]",
CCOc1nc(C)ccc1-c1noc(-c2cccnc2)n1,8.29,,
O=C(Nc1ccccc1)c1nccn1Cc1ccc(F)cc1,61.7,,
O=C(COC(=O)c1cc(=O)c2ccccc2o1)NC1CCCC1,1.22,"11.6 µM [falling, single point]",

Compound,cell number change [%],AC50 [1],AC50 [2]
COc1ccccc1S(=O)Cc1ccc(C(=O)O)o1 (configuration not stated),8.39,"29.1 µM [rising, single point]",
C=C(C)Cn1c(Sc2nc3ccccc3[nH]2)nc2c1c(=O)[nH]c(=O)n2C,48.7,"3.66 µM [falling, single point]","32.6 µM [rising, single point]"
CC1CCCCN1C(=O)C1CCN(S(=O)(=O)c2ccc(-n3cnnn3)cc2)CC1 (configuration not stated),-5.26,,"7.31 µM [rising, single point]"
O=C1[C@H]2[C@@H](c3ccc(F)cc3)N3C(=O)N(c4ccc(Br)cc4)C(=O)[C@@]3(Cc3ccc(Cl)cc3)[C@H]2C(=O)N1C1CCCCC1,86.2,"16.4 µM [falling, partial curve]","23.1 µM [rising, partial curve]"
CC1CCCN(C(=O)CSc2nnc(-c3cccs3)o2)C1 (configuration not stated),43.6,"29.1 µM [falling, single point]",
CC(=O)c1ccc(N(C(=O)CNC(=O)c2ccco2)C(C(=O)NC2CCCC2)c2ccncc2)cc1 (configuration not stated),-21.9,"29.1 µM [rising, single point]",
O=c1[nH]cc(NCCc2ccccc2)c(=O)[nH]1,-67.4,,"29.1 µM [falling, single point]"
COc1ccc(Cl)cc1/C=C/c1ccc2cccc(O)c2n1,-12.4,,
Cc1ccc(C2(C(F)(F)F)NC(=O)N3N=C4CCCCCN4C3=C2C#N)cc1 (configuration not stated),-3.51,"6.51 µM [falling, single point]",
Cc1ccccc1NC(=O)CSc1nc(O)cc(=O)n1C,28.1,"10.3 µM [rising, partial curve, poor fit]",
O=C(COC(=O)c1cnc(Cl)c(Cl)c1)NC1CCCCCC1,14.8,"2.31 µM [rising, single point]",
c1ccc(C[C@H]2CN=C(Nc3ccccc3)N2CCC2CCCC2)cc1,24.2,,"0.231 µM [rising, full curve, poor fit]"
COc1ccccc1Nc1nnc(SCc2cc(=O)n3ccsc3n2)s1,9.49,,
CSCC(=O)N1CCCC(N2CCN(c3cccc(C(F)(F)F)c3)CC2)C1 (configuration not stated),,"11.6 µM [falling, partial curve]",
O=C(CNC(=O)c1ccc(Br)cc1)N=Nc1c(O)[nH]c2ccc([N+](=O)[O-])cc12,18.9,"29.1 µM [rising, single point]",
CNC(=O)CC1C(=O)N(Cc2ccccc2)C(=S)N1NC(=O)c1cccc(F)c1 (configuration not stated),32.6,,"25.9 µM [rising, single point]"
O=C(NCC1COc2ccccc2O1)c1ccco1 (configuration not stated),17.9,"29.1 µM [rising, single point]",
COc1ccc(CNC(=O)C2CSCCS2)cc1 (configuration not stated),-13.8,"6.51 µM [falling, single point]","6.51 µM [falling, single point]"
Cc1ccc(S(=O)(=O)CCSC(=N)N)cc1,-26.9,"23.1 µM [falling, partial curve, poor fit]",
COc1ccc(CC(NC(C)=O)C(=O)NC2CCN(C(=O)c3ccncc3)CC2)cc1OC (configuration not stated),-24.4,"5.17 µM [rising, single point]",

# An excerpt of these results, tab-delimited.
Compound	cell number change [%]	AC50 [1]	AC50 [2]
Cc1ccc(S(=O)(=O)CCSC(=N)N)cc1	-26.9	23.1 µM [falling, partial curve, poor fit]	
COc1ccc(CC(NC(C)=O)C(=O)NC2CCN(C(=O)c3ccncc3)CC2)cc1OC (configuration not stated)	-24.4	5.17 µM [rising, single point]	
